Data taken from patent US20230278966A1, “TRIAZOLONE COMPOUNDS FOR CONTROLLING INVERTEBRATE PESTS” (FMC Corporation, priority 2020, published 2023).
At least one structure is not confirmed: it was looked up by name or label, or the drawing left a doubt.

System: Root Knot Nematodes
Experiment: Nematicide assay: control of Root Knot Nematode galling on host plant roots
Type: in vivo
Conditions: drip application, 4-day-old host plant, assessed after 8 days
Description: Test compounds were formulated using a solution containing 25% acetone and 75% water. The formulated compounds were applied in 330 μl of liquid through a drip applicator that was positioned above the top of each test unit. Test compounds were applied at 500 ppm and 100 ppm and each test was replicated three times. For evaluating control of Root Knot Nematodes the test unit consisted of a small open container with a 4-day-old host plant inside. The formulated compounds were dripped into the container and the nematodes were applied following the compound's application. The test units were held for 8 days in a growth chamber at 29.4° C. or 85 F. Root invasion by the nematodes was then visually assessed based on presence or absence of galls on the roots.

| Compound | control efficacy (decrease of nematode gall formation on roots compared to the inoculated control) (100 ppm) | control efficacy (decrease of nematode gall formation on roots compared to the inoculated control) (500 ppm) |
| --- | --- | --- |
| Cn1c(C(F)(F)F)nn(CCNC(=O)c2ccccc2C(F)(F)F)c1=O [Compound 14, N-[2-[4,5-Dihydro-4-methyl-5-oxo-3-(trifluoromethyl)-1H-1,2,4-triazol-1-yl]ethyl]-2-(trifluoromethyl)benzamide] | 50%-<100% | – |
| CC(C)(C)n1c(C(F)(F)F)nn(CCNC(=O)c2ccccc2Br)c1=O [Compound 50, 2-Bromo-N-[2-[4-(1,1-dimethylethyl)-4,5-dihydro-5-oxo-3-(trifluoromethyl)-1H-1,2,4-triazol-1-yl]ethyl]benzamide] | 50%-<100% | – |
| CC(C)(C)n1c(C(F)(F)F)nn(CCNC(=O)c2ccc(F)cc2C(F)(F)F)c1=O [Compound 115] | – | 50%-<100% |
| CC(C)(C)n1c(C(F)(F)F)nn(CCNC(=O)c2cccc(F)c2C(F)(F)F)c1=O [Compound 125] | – | 50%-<100% |
| COCC(C)(C)n1c(C(F)(F)F)nn(CCNC(=O)c2ccccc2C(F)(F)F)c1=O [Compound 134] | – | 50%-<100% |
| Cc1ccccc1C(=O)NCCn1nc(C(F)(F)F)n(C(C)(C)C(F)(F)F)c1=O [Compound 135] | 50%-<100% | – |
| O=C(NCCn1nc(C(F)(F)F)n(C2(C(F)(F)F)CCC2)c1=O)c1ccccc1C(F)(F)F [Compound 139] | 50%-<100% | – |
| O=C(NCCn1nc(C(F)(F)F)n(C2(C(F)(F)F)CCC2)c1=O)c1ccccc1Br [Compound 142] | 50%-<100% | – |
| O=C(NCCn1nc(C(F)(F)F)n(C2CC(F)(F)C2)c1=O)c1ccccc1Br [Compound 143] | 50%-<100% | – |
| O=C(NCCn1nc(C(F)(F)F)n(C2(C(F)(F)F)CCC2)c1=O)c1ccccc1Cl [Compound 149] | 50%-<100% | – |
| Cc1nc(C(F)(F)F)c(C(=O)NCCn2nc(C(F)(F)F)n(C(C)(C)C(F)(F)F)c2=O)s1 [Compound 176] | – | 50%-<100% |
